Measured values reported in patent US20210060320A1, “TRANSDERMAL DRUG DELIVERY SYSTEM AND METHOD FOR USING SAME” (NICHIBAN CO., LTD., priority 2017, published 2021).

Settings: pH 8
Text: Note that in the present invention, as an index of the “water solubility” in a “water-soluble drug” or a “water-soluble steroid”, a distribution coefficient (octanol/water distribution coefficient) can be employed. The distribution coefficient can be expressed by log D by taking into consideration of the influence of pH, and the water solubility is indicated by a minus value, while the liposolubility lipophilicity is indicated by a plus value.
The distribution coefficient can be obtained in accordance with the method described in JIS Z7260-107 or […].

C[C@H]1C[C@H]2[C@@H]3CCC4=CC(=O)C=C[C@]4(C)[C@@]3(F)[C@@H](O)C[C@]2(C)[C@@]1(O)C(=O)COP(=O)([O-])[O-].[Na+].[Na+] [betamethasone sodium phosphate]
distribution coefficient (log D): −5
